Test results reported in article PMC8898245.
Results are given in words; binding and its absence hold for the method and conditions named. In cells and extracts the contact can be indirect. Some results given as binding are weak or reduced against the parent protein; the word gives no strength. For part of these data: Sequences can lack the tags named with a protein.

Sequences of proteins named here, by UniProt entry; tags and fusion partners are left off. Residues count along the entry.
UniProt P21860, residues 20-1342: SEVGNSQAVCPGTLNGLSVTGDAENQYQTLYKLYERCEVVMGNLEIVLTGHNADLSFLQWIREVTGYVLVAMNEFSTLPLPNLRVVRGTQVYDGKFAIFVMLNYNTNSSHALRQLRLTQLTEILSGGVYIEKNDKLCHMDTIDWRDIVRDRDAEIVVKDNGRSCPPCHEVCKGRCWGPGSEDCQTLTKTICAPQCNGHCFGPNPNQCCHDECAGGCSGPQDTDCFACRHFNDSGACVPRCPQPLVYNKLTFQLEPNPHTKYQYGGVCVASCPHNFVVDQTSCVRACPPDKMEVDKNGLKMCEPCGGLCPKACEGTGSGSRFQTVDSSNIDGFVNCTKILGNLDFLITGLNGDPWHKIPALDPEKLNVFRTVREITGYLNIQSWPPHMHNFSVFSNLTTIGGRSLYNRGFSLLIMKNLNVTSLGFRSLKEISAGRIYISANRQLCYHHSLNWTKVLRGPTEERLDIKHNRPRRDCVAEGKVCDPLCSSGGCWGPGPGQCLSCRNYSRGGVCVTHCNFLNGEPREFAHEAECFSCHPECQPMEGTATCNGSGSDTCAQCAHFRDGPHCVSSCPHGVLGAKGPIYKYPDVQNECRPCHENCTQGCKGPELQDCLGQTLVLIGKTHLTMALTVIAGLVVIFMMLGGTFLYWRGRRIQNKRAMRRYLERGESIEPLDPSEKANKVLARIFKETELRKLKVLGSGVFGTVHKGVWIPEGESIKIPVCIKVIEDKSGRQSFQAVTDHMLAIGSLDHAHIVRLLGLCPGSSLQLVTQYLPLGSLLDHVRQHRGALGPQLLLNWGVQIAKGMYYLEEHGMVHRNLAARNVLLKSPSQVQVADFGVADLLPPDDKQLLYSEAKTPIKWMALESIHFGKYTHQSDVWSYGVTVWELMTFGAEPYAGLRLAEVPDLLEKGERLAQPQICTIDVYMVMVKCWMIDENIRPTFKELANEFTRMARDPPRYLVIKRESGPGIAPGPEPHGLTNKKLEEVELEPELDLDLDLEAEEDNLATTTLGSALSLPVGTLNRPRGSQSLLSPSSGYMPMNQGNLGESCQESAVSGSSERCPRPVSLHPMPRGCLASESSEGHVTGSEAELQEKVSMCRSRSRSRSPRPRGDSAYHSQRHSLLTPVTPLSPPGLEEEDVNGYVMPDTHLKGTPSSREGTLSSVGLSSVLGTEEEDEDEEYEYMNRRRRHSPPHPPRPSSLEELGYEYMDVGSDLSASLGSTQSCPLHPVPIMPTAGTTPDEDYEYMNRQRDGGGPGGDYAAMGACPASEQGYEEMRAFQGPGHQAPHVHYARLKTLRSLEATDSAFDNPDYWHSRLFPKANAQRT
UniProt P08581, residues 25-1390: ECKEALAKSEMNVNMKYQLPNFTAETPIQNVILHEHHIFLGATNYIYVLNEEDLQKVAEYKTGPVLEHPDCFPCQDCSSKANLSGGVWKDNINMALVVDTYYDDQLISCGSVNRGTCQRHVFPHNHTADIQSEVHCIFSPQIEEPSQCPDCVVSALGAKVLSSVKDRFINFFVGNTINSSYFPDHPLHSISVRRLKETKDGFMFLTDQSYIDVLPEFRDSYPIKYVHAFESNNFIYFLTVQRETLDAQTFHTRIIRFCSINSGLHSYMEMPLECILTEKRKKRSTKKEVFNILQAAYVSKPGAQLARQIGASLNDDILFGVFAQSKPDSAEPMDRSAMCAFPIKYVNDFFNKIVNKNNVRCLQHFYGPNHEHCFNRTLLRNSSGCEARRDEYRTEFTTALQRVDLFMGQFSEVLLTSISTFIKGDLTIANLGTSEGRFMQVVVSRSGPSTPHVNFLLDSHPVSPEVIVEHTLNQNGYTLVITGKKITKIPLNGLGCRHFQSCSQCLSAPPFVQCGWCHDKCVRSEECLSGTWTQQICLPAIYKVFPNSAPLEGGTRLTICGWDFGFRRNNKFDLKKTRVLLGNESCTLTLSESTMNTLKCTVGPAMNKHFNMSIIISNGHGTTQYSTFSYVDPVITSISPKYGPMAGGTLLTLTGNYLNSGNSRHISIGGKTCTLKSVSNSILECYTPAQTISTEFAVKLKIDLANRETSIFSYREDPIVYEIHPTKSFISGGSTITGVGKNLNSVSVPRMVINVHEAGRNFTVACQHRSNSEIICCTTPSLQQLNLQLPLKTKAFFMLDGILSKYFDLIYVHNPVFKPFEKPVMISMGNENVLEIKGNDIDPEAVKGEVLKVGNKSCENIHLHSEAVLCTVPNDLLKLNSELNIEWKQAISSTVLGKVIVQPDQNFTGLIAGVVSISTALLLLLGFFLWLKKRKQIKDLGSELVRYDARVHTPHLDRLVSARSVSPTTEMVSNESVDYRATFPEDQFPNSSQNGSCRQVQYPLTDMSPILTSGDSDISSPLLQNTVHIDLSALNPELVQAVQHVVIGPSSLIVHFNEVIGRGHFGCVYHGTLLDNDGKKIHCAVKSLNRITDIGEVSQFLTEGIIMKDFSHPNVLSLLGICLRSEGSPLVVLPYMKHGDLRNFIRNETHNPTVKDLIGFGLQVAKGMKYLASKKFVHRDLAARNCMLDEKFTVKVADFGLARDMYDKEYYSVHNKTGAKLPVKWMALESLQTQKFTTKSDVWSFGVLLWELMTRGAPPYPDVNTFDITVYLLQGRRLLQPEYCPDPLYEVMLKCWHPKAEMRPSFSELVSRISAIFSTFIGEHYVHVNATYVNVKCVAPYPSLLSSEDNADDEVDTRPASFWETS

Legend:
[1] = target: T1, MPZL3, full-length (co-overexpressed in HEK293T) (human) (UniProt Q6UWV2); test: co-IP; HER3 and MPZL3 (full-length or ΔECD) co-overexpressed in HEK293T cells; HER3 recovered by MPZL3 quantified; lysate collected 36 h post-transfection, anti-V5 immunoprecipitation
T1 sequence: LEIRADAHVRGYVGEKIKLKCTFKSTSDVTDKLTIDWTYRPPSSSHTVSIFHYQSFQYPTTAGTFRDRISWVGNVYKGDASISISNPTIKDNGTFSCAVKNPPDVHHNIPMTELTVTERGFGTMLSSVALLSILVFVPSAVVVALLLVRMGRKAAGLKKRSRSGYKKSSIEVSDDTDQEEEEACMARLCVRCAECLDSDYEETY

[2] = target: T2, MPZL3-V5 (human) (UniProt Q6UWV2); test: co-IP; KatoII cells stably transduced with MPZL3-V5, vehicle (DMSO); 1 mg lysate in TGH buffer, anti-V5 immunoprecipitation overnight, protein G sepharose, blots for HER3 and Met
T2 sequence: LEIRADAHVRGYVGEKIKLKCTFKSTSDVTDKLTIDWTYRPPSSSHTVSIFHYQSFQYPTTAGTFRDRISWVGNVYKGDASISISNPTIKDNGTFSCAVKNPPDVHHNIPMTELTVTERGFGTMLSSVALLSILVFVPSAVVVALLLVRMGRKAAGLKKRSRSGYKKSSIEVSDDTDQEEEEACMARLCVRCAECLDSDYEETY

[3] = target: T3, MPZL3 R99Q (SIMPL construct) (human) (UniProt Q6UWV2); test: split intein-mediated protein ligation (SIMPL); IN and IC intein fragments fused to bait and prey, co-expressed in HEK293T cells; transfer of the FLAG tag to the V5-tagged bait read by blot
T3 sequence: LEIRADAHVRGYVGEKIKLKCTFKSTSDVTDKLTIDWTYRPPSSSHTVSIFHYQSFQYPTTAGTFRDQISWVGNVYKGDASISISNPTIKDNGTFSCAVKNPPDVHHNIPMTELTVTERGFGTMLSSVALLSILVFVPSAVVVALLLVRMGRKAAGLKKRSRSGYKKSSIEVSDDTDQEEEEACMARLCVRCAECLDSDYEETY

[4] = target: T4, MPZL3 C52A (SIMPL construct) (human) (UniProt Q6UWV2); test: as above
T4 sequence: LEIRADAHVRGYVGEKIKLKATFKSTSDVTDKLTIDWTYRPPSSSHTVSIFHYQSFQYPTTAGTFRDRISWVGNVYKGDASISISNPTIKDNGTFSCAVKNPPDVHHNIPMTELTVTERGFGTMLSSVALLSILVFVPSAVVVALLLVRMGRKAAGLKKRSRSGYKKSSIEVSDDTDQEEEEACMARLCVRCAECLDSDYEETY

[5] = target: HER3-IN (V5-tagged) (human) (UniProt P21860); test: as above

For “HER3 (co-overexpressed in HEK293T) (from UniProt P21860 20-1342) (receptor)”, which binding [1] is on record?
Its binding is “binds”.

With “HER3 (from UniProt P21860 20-1342) (receptor)” as the molecule, how does the binding [2] read?
The binding was “binds”.

How did the binding [3] turn out when “HER3-IN (V5-tagged) (from UniProt P21860 20-1342) (receptor)” was run?
The binding was “binds”.

What about the binding [4] of the same molecule?
Its binding is “binds”.

“Met (from UniProt P08581 25-1390) (receptor)” was tested. Which binding [2] did it give?
Its binding is “no binding”.

B1: MPZL3-IC (FLAG-tagged) (protein, UniProt Q6UWV2 32-235)
chain: LEIRADAHVRGYVGEKIKLKCTFKSTSDVTDKLTIDWTYRPPSSSHTVSIFHYQSFQYPTTAGTFRDRISWVGNVYKGDASISISNPTIKDNGTFSCAVKNPPDVHHNIPMTELTVTERGFGTMLSSVALLSILVFVPSAVVVALLLVRMGRKAAGLKKRSRSGYKKSSIEVSDDTDQEEEEACMARLCVRCAECLDSDYEETY
Which binding [5] does the source give for B1 here?
Its binding is “binds”.
